Results deposited as PubChem BioAssay AID1259308 (NCATS, 2017).
Here is a random part of about 59,000 reagents. About 1,510 of them (2.6%) were called active. 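Calls use total luciferase alone and ignore viability, so some active siRNAs may act by altering cell number.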 The numbers tell different reagents against one gene apart. Not all columns of the deposit are shown. Reagent sequences are not shown.

Aim: 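Knock-downs that increase output of a recombinant reporter protein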 (primary screen)
Cell system: human HEK293 embryonic kidney cells stably expressing firefly luciferase (HEK-CMV-Luc2-Hygro)
Knock-down reagent: single siRNA against human genes, 0.8 pmol siRNA per well
Duration: 72 h
Read-out: 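Luciferase light (ONE-Glo) measured on one replicate plate set and viability (CellTiter-Glo) on the other, scaled to a negative control siRNA, with robust z-scores and luciferase per cell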
Scale: total luciferase, z-score: higher = more reporter protein produced
Call rule: 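An siRNA counts as active if its total luciferase robust z-score exceeds 3; genes with two or more such siRNAs out of three were retested with fresh siRNAs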
Meaning of the calls: active = raised luciferase; inactive = no rise

Against LINC02875 (GeneID 388407) #1, the entry reads total luciferase, z-score 3.66; active. Against LINC02875 (GeneID 388407) #2, the entry reads total luciferase, z-score -1.5; inactive. LINC02875 (GeneID 388407) #3 scored total luciferase, z-score -0.13; inactive. ABCB8 (GeneID 11194) #1 showed total luciferase, z-score 4.4; active. With knock-down of ABCB8 (GeneID 11194) #2, the screen gave total luciferase, z-score 3.54; active. With knock-down of ABCB8 (GeneID 11194) #3, the screen gave total luciferase, z-score 1.7; inactive.

After knock-down of TLE4 (GeneID 7091) #1, the record shows total luciferase, z-score -0.674; inactive. Silencing of TLE4 (GeneID 7091) #2 came out at: total luciferase, z-score 1.5; inactive. After knock-down of TLE4 (GeneID 7091) #3 the results were total luciferase, z-score -0.523; inactive. IFNAR1 (GeneID 3454) #1 scored total luciferase, z-score 0.438; inactive. IFNAR1 (GeneID 3454) #2 gave total luciferase, z-score 1.11; inactive. With knock-down of IFNAR1 (GeneID 3454) #3, the record shows total luciferase, z-score 1.54; inactive.

Against OR5I1 (GeneID 10798) #1, the entry reads total luciferase, z-score -0.643; inactive. Knock-down of OR5I1 (GeneID 10798) #2 resulted in: total luciferase, z-score -1.08; inactive. With knock-down of OR5I1 (GeneID 10798) #3, the record shows total luciferase, z-score 0.132; inactive. KBTBD3 (GeneID 143879) #1 gave total luciferase, z-score 0.457; inactive. After knock-down of KBTBD3 (GeneID 143879) #2, the screen gave total luciferase, z-score -0.149; inactive. With knock-down of KBTBD3 (GeneID 143879) #3 the results were total luciferase, z-score -0.533; inactive.

CACNB2 (GeneID 783) #1 showed total luciferase, z-score 0.21; inactive. CACNB2 (GeneID 783) #2 showed total luciferase, z-score -1.2; inactive. Depletion of CACNB2 (GeneID 783) #3 gave: total luciferase, z-score 0.774; inactive. Silencing of RAB11FIP3 (GeneID 9727) #1 gave: total luciferase, z-score 0.0594; inactive. With knock-down of RAB11FIP3 (GeneID 9727) #2, the record shows total luciferase, z-score -0.525; inactive. Depletion of RAB11FIP3 (GeneID 9727) #3 came out at: total luciferase, z-score -1.09; inactive.

Knock-down of MICAL1 (GeneID 64780) #1 came out at: total luciferase, z-score 1.2; inactive. MICAL1 (GeneID 64780) #2 gave total luciferase, z-score 0.091; inactive. For MICAL1 (GeneID 64780) #3, the entry reads total luciferase, z-score -1.8; inactive. RAB39B (GeneID 116442) #1 showed total luciferase, z-score -0.0478; inactive. Knock-down of RAB39B (GeneID 116442) #2 gave: total luciferase, z-score 0.36; inactive. With knock-down of RAB39B (GeneID 116442) #3 the results were total luciferase, z-score 1.11; inactive.

Knock-down of NPAS2 (GeneID 4862) #1 gave: total luciferase, z-score 0.0422; inactive. Knock-down of NPAS2 (GeneID 4862) #2 gave: total luciferase, z-score 1.41; inactive. For NPAS2 (GeneID 4862) #3, the values are total luciferase, z-score -0.0152; inactive. With knock-down of AVPR1A (GeneID 552) #1 the results were total luciferase, z-score 1.09; inactive. After knock-down of AVPR1A (GeneID 552) #2, the record shows total luciferase, z-score 0.97; inactive. AVPR1A (GeneID 552) #3 showed total luciferase, z-score -3.77; inactive.

Against YBX2 (GeneID 51087) #1, the entry reads total luciferase, z-score 1.09; inactive. Depletion of YBX2 (GeneID 51087) #2 resulted in: total luciferase, z-score 0.725; inactive. With knock-down of YBX2 (GeneID 51087) #3 the results were total luciferase, z-score 1.21; inactive. After knock-down of KCTD13 (GeneID 253980) #1, the record shows total luciferase, z-score 0.505; inactive. Knock-down of KCTD13 (GeneID 253980) #2 gave: total luciferase, z-score -0.789; inactive. With knock-down of KCTD13 (GeneID 253980) #3, the screen gave total luciferase, z-score 0.722; inactive.

Laid out differently: entries from further up
target	reagent	total luciferase, z-score	call
RAB11FIP3 (GeneID 9727)	1	0.0594	inactive
RAB11FIP3 (GeneID 9727)	2	-0.525	inactive
RAB11FIP3 (GeneID 9727)	3	-1.09	inactive
MICAL1 (GeneID 64780)	1	1.2	inactive
MICAL1 (GeneID 64780)	2	0.091	inactive
MICAL1 (GeneID 64780)	3	-1.8	inactive
